Measured values from PubChem BioAssay AID662 (National Center for Advancing Translational Sciences (NCATS), 2007).
Some of the results follow. Further columns of the screen follow, without active or inactive calls. The list favours compounds with an active or inconclusive main result. Potencies come from curve fits of mixed quality, noted in brackets.

Test: Cell signaling CRE-BLA (Fsk stim)
Details: CHO CRE-bla reporter (cAMP response element driving beta-lactamase), forskolin EC10, beta-lactamase ratio; measured here: 460 nm blue channel
Procedure, shortened: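 Using CellSensor CRE-bla CHO cells in Opti-MEM with 0.5% dialyzed FBS, compounds were titrated with EC10 NKH 477 for 3 h at 37 °C. CCF4 ratio (460/530 nm) gave %Activity; AC50 derived.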

| SMILES | AC50 |
| --- | --- |
| CCOCCOc1nc2c(c(=O)n(C)c(=O)n2C)n1Cc1ccc(C)cc1 | 2.51 µM [rising, full curve] |
| CNc1nc(-c2ccc(C(=O)N(C)C)cc2)nc2ccccc12 | 10 µM [rising, single point] |
| O=C(N1CCN(c2ccccc2)CC1)C(F)(F)C(F)(F)F | 0.794 µM [falling, full curve, poor fit] |
| CCn1c2ccccc2c2nnc(SCC(=O)N3CC(C)OC(C)C3)nc21 (stereo not drawn) | 10 µM [rising, partial curve] |
| COCCCn1c(SCC(=O)Nc2nnc(C)s2)nnc1-c1ccoc1C | 25.1 µM [rising, single point] |
| CCS(=O)(=O)N1CCC(C(=O)NCc2ccccn2)CC1 | 0.00794 µM [falling, full curve, poor fit] |
| COc1ccccc1CNC(=O)CCC(=O)Nc1nnc(C)s1 | 25.1 µM [rising, single point] |
| Cc1nnc(NC(=O)CSc2nnc(Cc3cccn3C)n2-c2ccccc2)s1 | 12.6 µM [rising, single point] |
| Cc1nn(Cc2ccc(Cl)c(Cl)c2)c(C)c1NC(=O)c1cc(-c2ccc3c(c2)OCO3)on1 | 6.31 µM [rising, partial curve] |
| CC1(C(=O)NC2CCCCCCC2)CCC(=O)N1CCN1CCOCC1 (stereo not drawn) | 25.1 µM [rising, single point] |
| CCOC(=O)c1cc(-c2ccco2)nc2c1c(C)nn2-c1ccccc1 | 3.16 µM [rising, full curve] |
| C[C@H]1C2=C3C(CC[C@H]4C(OCc5ccc(F)cc5C(F)(F)F)OC[C@](C)([C@@H]34)N(C(=O)OC(C)(C)C)C2)C(CO)C1CO (stereo partly drawn) | 7.94 µM [rising, partial curve] |
| CC1CCc2c(sc3nc(SCC(=O)NCc4ccco4)nc(N)c23)C1 (stereo not drawn) | 10 µM [rising, partial curve] |
| O=C(Nc1ccccc1C(=O)NCc1ccccc1)c1ccco1 | 3.98 µM [rising, partial curve] |
| COc1ccc(OC)c(C2=Nn3c(nnc3-c3cccc(OC(C)C)c3)SC2)c1 | 2 µM [rising, full curve] |
| Cc1cc(SCC#N)n2nc(C)c(-c3ccccc3)c2n1 | 3.16 µM [rising, partial curve] |
| CSC1=C(C#N)C(C)C2=C(CC(C)(C)CC2=O)N1 (stereo not drawn) | 12.6 µM [rising, partial curve, poor fit] |
| Cc1cccc(Nc2nnc(SCc3cn4ccsc4n3)s2)c1 | 12.6 µM [rising, partial curve] |
| O=C(Nc1ccc(CCC(=O)N2CCCC2)cc1)c1ncn[nH]1 | 0.00316 µM [falling, full curve, poor fit] |
| COCCn1c(SCC(=O)N2CCCc3ccccc32)nnc1-c1ccco1 | 12.6 µM [rising, single point] |
| CCOc1cc(-c2noc(CCC(=O)N3CCOCC3)n2)ccc1OC | 12.6 µM [rising, single point] |
| COc1cc(Cl)c(C)cc1NC(=O)COC(=O)c1cnc(C)cn1 | 0.00316 µM [falling, full curve, poor fit] |
| CC(=O)c1c(C(C)=O)c(C)n(NC(=O)c2cccnc2)c1C | 0.794 µM [falling, full curve] |

| SMILES | AC50 |
| --- | --- |
| Cc1c(CN(C)C)c2c(n1C)C(=O)c1ccc(Br)cc1-2 | 5.01 µM [rising, full curve] |
| O=C(CCS(=O)(=O)Cc1ccccc1F)N1CCc2ccccc2C1 | 0.0501 µM [falling, full curve] |
| CC1=C(C)C(=O)NC(Nc2nc(C)c3cc(C)cc(C)c3n2)N1 (stereo not drawn) | 0.2 µM [rising, full curve] |
| O=C(CCNS(=O)(=O)c1cccc2nsnc12)N1CCc2ccccc21 | 5.01 µM [falling, single point] |
| Cc1nnc(NC(=O)CSc2nc3c(c(=O)n2CCc2ccccc2)SC(C)C3)s1 (stereo not drawn) | 10 µM [rising, partial curve] |
| COc1cccc(C2CC(=O)N3CN(c4ccccc4F)CSC3=C2C#N)c1 (stereo not drawn) | 10 µM [rising, single point] |
| COCCNc1nc(-c2cccc(NS(C)(=O)=O)c2)nc2ccccc12 | 3.98 µM [rising, full curve] |
| COc1cc(C2=NOC(C(=O)Nc3ccc(C)cc3)C2)cc(OC)c1OC (stereo not drawn) | 1.26 µM [rising, partial curve, poor fit] |
| Cc1cc(NC(=O)C2CCC2)n(-c2ccccn2)n1 | 5.01 µM [rising, partial curve] |
| Nc1ccc(SC(F)(F)F)cc1C(=O)c1ccccc1 | 25.1 µM [falling, single point] |
| Cc1ccc(C)c2[nH]c(=O)c(CN(CCCN(C)C)C(=O)NCc3ccccc3)cc12 | 31.6 µM [falling, partial curve] |
| CCNc1ncc2ncc(=O)n(Cc3ccc(F)cc3)c2n1 | 25.1 µM [rising, single point] |
| CCN(CC)c1ccc(NC(=O)c2cc(OC)cc(OC)c2)c(C)c1 | 10 µM [rising, partial curve] |
| CCOc1ccc2nc(NCCCNS(=O)(=O)c3ccccc3)c(C#N)cc2c1 | 10 µM [rising, partial curve] |
| C=CCn1nnnc1SCC(=O)Nc1ccccc1C(=O)OC | 0.00316 µM [falling, full curve, poor fit] |
| Cc1c2cccc(Sc3ccccc3)c2c2c3c(cccc13)[S+](c1ccccc1)C2 (stereo not drawn) | 3.16 µM [rising, single point] |
| CCOC(=O)CSC1=Nc2ccccc2C2=NC(CC(=O)NCc3cccs3)C(=O)N12 (stereo not drawn) | 0.0398 µM [rising, full curve] |
| CN(C)c1ccc(NC(=O)c2cc3c(=O)n4ccccc4nc3n2C)cc1 | 5.01 µM [rising, partial curve] |
| COc1cc(/C=C\c2ccc(OC)cc2OC)cc(OC)c1 | 2.51 µM [rising, full curve] |
| CCCCOCCCNC(=O)c1cccs1 | 0.0631 µM [rising, full curve] |
| COc1cc2c(cc1OC)/C(=C/C#N)NC(C)(C)C2 | 2 µM [rising, full curve] |
| CCCCC(=O)Nc1cccc(-c2nn3c(C)nnc3s2)c1 | 25.1 µM [rising, single point] |
| CCCCc1cc(=O)oc2c(CN3CCCC3)c(O)c(Cl)cc12 | 10 µM [rising, partial curve] |

| SMILES | AC50 |
| --- | --- |
| CC(C)C1N=C2c3ccccc3N=C(SCc3cc(=O)n4cc(Cl)ccc4n3)N2C1=O (stereo not drawn) | 0.126 µM [rising, full curve] |
| COc1ccc(-n2c(=O)cc(N3CCN(c4ccccc4F)CC3)[nH]c2=O)cc1 | 15.8 µM [rising, single point] |
| COc1ccc(S(=O)(=O)Cc2ccc(C(=O)N3CCN(c4cccc(C)c4C)CC3)o2)cc1 | 25.1 µM [falling, single point] |
| CCOCCCNc1nc(=S)[nH]c2cc(OC)c(OC)cc12 | 0.126 µM [rising, full curve] |
| Cc1cc(NC(=O)c2cnn3cccnc23)n(-c2ccccc2)n1 | 2.51 µM [rising, full curve] |
| O=S(=O)(NCCc1ccccn1)c1ccc(F)c(F)c1 | 25.1 µM [rising, single point] |
| COCC(=O)Nc1nc2n(n1)C(c1ccccc1)CC(c1ccc(OC)cc1)N2 (stereo not drawn) | 0.316 µM [falling, full curve] |
| O=C(NCc1cccnc1)C1CCCCN1S(=O)(=O)c1ccc(F)cc1 (stereo not drawn) | 0.00398 µM [falling, full curve, poor fit] |
| CC1(C)CC(=O)c2cc(C(=O)N3CCN(CCO)CC3)c(=O)n(-c3ccc(Cl)cc3)c2C1 | 0.501 µM [rising, full curve] |
| CCn1cc(C(=O)Nc2ccc3c(c2)OCCO3)c2cc(OC)c(OC)cc2c1=O | 0.631 µM [rising, full curve] |
| Cc1nc2ccc(S(=O)(=O)N(C)CC(=O)NCc3ccc4c(c3)OCO4)cc2s1 | 0.1 µM [falling, full curve] |
| CCOC(=O)CSc1nnc(CSc2nc3ccccc3c(=O)[nH]2)n1-c1ccccc1 | 10 µM [rising, single point] |
| CCNc1ncc2nc(CCc3ccccc3)c(=O)n(-c3ccccc3)c2n1 | 12.6 µM [rising, partial curve] |
| Cc1ccc(S(=O)(=O)N2CCN(CCO)CC2)cc1-c1nnc2c3ccccc3c(C)nn12 | 10 µM [rising, partial curve] |
| Cc1ccc(-c2nc3ccccc3[nH]2)cc1NC(=O)c1ccco1 | 12.6 µM [rising, partial curve] |
| O=C1c2ccccc2N2C(=O)c3ccccc3C2N1Cc1ccco1 (stereo not drawn) | 10 µM [rising, partial curve] |
| Cc1nnc(SCC(=O)NC(C)c2ccccc2)[nH]c1=O (stereo not drawn) | 1 µM [falling, partial curve] |
| COc1ccc(Nc2cc(C)nc(N3CCOCC3)n2)cc1 | 12.6 µM [rising, single point] |
| O=C1NC(=O)C(CC(=O)N(c2ccccc2)C2(C(=O)NC3CCCC3)CCCCC2)N1 (stereo not drawn) | 0.00398 µM [falling, full curve, poor fit] |
| O=C(C1CCN(S(=O)(=O)c2ccc3ccccc3c2)CC1)N1CCN(c2ncccn2)CC1 | 5.01 µM [falling, single point] |
| NC(=O)CN1CCCN(S(=O)(=O)c2ccc(Br)cc2)CC1 | 25.1 µM [rising, single point] |
| COC(=O)C1=CN(C)C=C(C(=O)OC)C1c1ccccc1Cl | 6.31 µM [rising, partial curve] |

By substructure: the entries above with a CF3 group (three)

| SMILES | AC50 |
| --- | --- |
| O=C(N1CCN(c2ccccc2)CC1)C(F)(F)C(F)(F)F | 0.794 µM [falling, full curve, poor fit] |
| C[C@H]1C2=C3C(CC[C@H]4C(OCc5ccc(F)cc5C(F)(F)F)OC[C@](C)([C@@H]34)N(C(=O)OC(C)(C)C)C2)C(CO)C1CO (stereo partly drawn) | 7.94 µM [rising, partial curve] |
| Nc1ccc(SC(F)(F)F)cc1C(=O)c1ccccc1 | 25.1 µM [falling, single point] |
